Results are given in words; binding and its absence hold for the method and conditions named. For some assays here: In cells and extracts the contact can be indirect. Some results given as binding are weak or reduced against the parent protein; the word gives no strength.
Key:
[1] = biological target: T1, SIVA-1 (human) (UniProt O15304); experiment: co-IP; Co-IP; unpublished data, no details given
T1 sequence: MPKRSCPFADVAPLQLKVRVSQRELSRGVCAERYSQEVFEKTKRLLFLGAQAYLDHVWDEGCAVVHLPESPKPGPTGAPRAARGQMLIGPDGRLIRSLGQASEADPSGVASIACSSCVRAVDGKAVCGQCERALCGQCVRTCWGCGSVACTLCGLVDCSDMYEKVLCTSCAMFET

Chains of the proteins cited; added tags and fusions are not shown.
UniProt Q15365: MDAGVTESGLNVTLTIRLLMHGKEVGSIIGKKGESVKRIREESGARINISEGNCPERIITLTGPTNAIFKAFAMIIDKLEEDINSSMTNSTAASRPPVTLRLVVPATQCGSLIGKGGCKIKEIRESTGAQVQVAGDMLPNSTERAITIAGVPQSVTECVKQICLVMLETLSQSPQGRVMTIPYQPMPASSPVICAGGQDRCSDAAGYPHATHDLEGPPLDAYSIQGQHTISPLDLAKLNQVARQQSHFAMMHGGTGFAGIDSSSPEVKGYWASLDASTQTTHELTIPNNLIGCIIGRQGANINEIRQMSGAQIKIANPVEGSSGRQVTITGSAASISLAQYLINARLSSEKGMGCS

[2] = biological target: T1, SIVA-1 (human); experiment: two-hybrid; yeast two-hybrid; unpublished data, no details given

**Q.** For PCBP1 (from UniProt Q15365 1-356), which binding [1] is on record?
**A.** binds

**Q.** And the binding [2]?
**A.** binds
